Data on one substance can be found in publication PMC4565669, “Insulin and mTOR Pathway Regulate HDAC3-Mediated Deacetylation and Activation of PGK1” (PLoS Biology, 2015).

These are yes or no findings as the source states them, for the method shown. Binding seen in cells or lysates may run through a third protein. Some results given as binding are weak or reduced against the parent protein; the word gives no strength. Tags and fused reporters may be left off the sequences shown.

This experiment concerns the target T1, Flag-tagged PGK1 (phosphoglycerate kinase 1) (human) (UniProt P00558).
T1 sequence: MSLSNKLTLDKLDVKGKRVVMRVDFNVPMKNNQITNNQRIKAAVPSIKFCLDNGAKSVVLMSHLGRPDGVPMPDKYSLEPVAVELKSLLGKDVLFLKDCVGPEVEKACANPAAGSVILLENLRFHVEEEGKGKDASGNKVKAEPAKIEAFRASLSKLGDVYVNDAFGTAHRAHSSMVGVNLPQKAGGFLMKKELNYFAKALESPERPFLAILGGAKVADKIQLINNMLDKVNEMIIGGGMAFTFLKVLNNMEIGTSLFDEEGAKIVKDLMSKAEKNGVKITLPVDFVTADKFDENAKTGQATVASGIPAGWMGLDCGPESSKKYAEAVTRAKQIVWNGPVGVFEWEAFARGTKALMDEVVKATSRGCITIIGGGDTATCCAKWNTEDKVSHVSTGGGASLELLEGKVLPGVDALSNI
In words: co-IP; Flag-PGK1 co-overexpressed with an HA-tagged partner in HEK293T cells; IP with Flag beads or Flag antibody, western blot with HA antibody; in some panels cells treated with insulin (50 nM, 2 hr), LY294002 or Wortmannin. On the technique in general: In western blotting, separated proteins are transferred to a membrane and probed.

Take “HA-tagged HDAC3 (histone deacetylase 3) (from UniProt O15379-1 1-428) (enzyme)”: the binding result is given as “binds”.
